From PubChem BioAssay AID2685 (National Center for Advancing Translational Sciences (NCATS), 2010)
This is one part of the list. The main result of the screen is listed elsewhere. These columns were measured beside it and carry no call. Most of these compounds were active or inconclusive in the main read-out, so they are no random draw. Potencies come from curve fits of mixed quality, noted in brackets.

Experiment: qHTS Assay for Lipid Storage Modulators in Drosophila S3 Cells;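 for cell number change: cells counted by Cell Tracker Red CMTPX staining in the red channel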
Settings: BODIPY lipid droplet fluorescence, 18-24 h; for cell number change: measured here: cell count max response, cells fed with added oleic acid
Outline: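 Laser-scanning cytometry quantifies lipid droplet accumulation (500–530 nm total intensity; droplet/cell object ratio) in oleic acid-fed (400 uM added) Drosophila S3 cells treated with a concentration series. 20 uM Triacsin C defined 100% inhibition.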

[1] = measured here: lipid fluorescence (Fed channel) AC50, cells fed with added oleic acid
[2] = measured here: cell number channel AC50, cells fed with added oleic acid

Compound	cell number change	AC50 [1]	AC50 [2]
COCCn1nnnc1C(c1ccc(O)c(OC)c1)N1CCc2ccccc2C1 (stereo not given)	10.1%	–	–
CC(C)c1ccc(/C=C2\SC(N3CCOCC3)=NC2=O)cc1	11.9%	32.6 µM [falling, single point]	–
CCOC(=O)c1cnc2ccc(C(=O)OC)cc2c1NCCCN1CCOCC1	-6.08%	29.1 µM [falling, single point]	–
COc1cccc(OC)c1C(=O)N1CCNCC1	5.47%	0.651 µM [rising, partial curve, poor fit]	–
CCOC(=O)c1[nH]c(C)c(C(=O)NCCN2CCOCC2)c1C	-17.3%	2.06 µM [falling, partial curve]	0.651 µM [falling, full curve]
O=C(/C=C/c1ccc2c(c1)OCCCO2)c1ccc2ccccc2c1O	73.7%	18.4 µM [rising, partial curve]	20.6 µM [rising, single point]
CCOC(=O)c1ccccc1NC(=O)COC(=O)CSCC(=O)Nc1cc(C)on1	36.5%	–	1.64 µM [rising, partial curve]
CN(C)C(=O)c1cn(-c2ccc(Cl)cc2)c(=O)c2ccccc12	3.64%	–	0.731 µM [falling, single point]
OCCn1c(SC2CCCCC2)nc2ccccc21	12.2%	–	0.651 µM [falling, single point]
c1ccc(-c2nc(N3CCNCC3)nc3ccccc23)cc1	-1.98%	6.51 µM [rising, single point]	–
Cc1ccc(C2(C)NC(=O)N(CC(=O)Nc3ccccc3N3CCCCC3)C2=O)cc1 (stereo not given)	103%	5.17 µM [rising, partial curve]	16.4 µM [rising, partial curve]
C/C(=N\NC(=O)c1ccccc1O)c1ccc(NC(=O)c2ccccc2)cc1	-38.5%	6.51 µM [falling, single point]	1.03 µM [falling, full curve]
CCc1ccc(/C=C/c2c[nH]c3ccccc23)[n+](CC)c1	-27.5%	16.4 µM [falling, single point]	–
COC(=O)c1cc(C(=O)c2c(C)cc3ccccn23)cc([N+](=O)[O-])c1	-30.5%	–	–
CC(C)c1ccc(NC(=O)C2CCN(S(C)(=O)=O)CC2)cc1	0.267%	0.731 µM [rising, single point]	–
COc1ccc(C2(C(=O)O)CCCC2)cc1	-0.144%	7.31 µM [falling, partial curve]	–
COC(=O)C(C)Sc1n[nH]c(=S)s1 (stereo not given)	–	13 µM [falling, partial curve]	–
O=C(Nc1cccc(NC(=O)C2CC3CCCC(C2)C3=O)n1)C1CC2CCCC(C1)C2=O (stereo not given)	-51.3%	29.1 µM [falling, single point]	18.4 µM [falling, single point]
Cc1cc(OC(=O)c2ccco2)c2c(C)cc(=O)oc2c1	-18.5%	3.26 µM [falling, partial curve, poor fit]	7.31 µM [falling, partial curve]
COc1ccc(-c2ccc(-c3noc(-c4ccccc4OC)n3)c(OC)n2)cc1	6.2%	29.1 µM [rising, single point]	–
O=C(N=Nc1c(O)[nH]c2ccccc12)c1cc(NS(=O)(=O)c2cccs2)cc(NS(=O)(=O)c2cccs2)c1	21%	3.66 µM [rising, full curve]	–

Compound	cell number change	AC50 [1]	AC50 [2]
Cc1cc(C)c2nc(C)cc(N/N=C/c3ccc(O)cc3)c2c1	-68%	18.4 µM [falling, partial curve, poor fit]	18.4 µM [falling, single point]
NC(=O)c1nsc(C(=O)N(Cc2ccco2)C(C(=O)NCc2ccccc2)c2ccc(O)cc2)c1N (stereo not given)	10.4%	–	–
Cc1nnc(SCC(=O)Nc2ccc(Br)cc2)n(N)c1=O	36.7%	–	–
COc1cc(/C=C/C(=O)OCC(=O)c2ccc3c(c2)NC(=O)CO3)ccc1OC(F)F	-9.02%	29.1 µM [falling, single point]	–
CC1CCN(CCc2nc3cc(NC(=O)Nc4ccccc4)ccc3n2C)CC1	3.25%	6.51 µM [rising, single point]	–
Cc1ccc(CNC2CCCCC2)s1	5.25%	18.4 µM [rising, single point]	–
O=c1ccc2cc3c(-c4ccccc4)coc3cc2o1	–	29.1 µM [rising, single point]	–
CC(C)CC(=O)N(c1ccc(F)cc1)C1C=CS(=O)(=O)C1 (stereo not given)	-5.04%	–	–
COc1ccc(CC(=O)Nc2cccc(Cl)c2C)cc1S(=O)(=O)N1CCOCC1	47.1%	29.1 µM [rising, partial curve, poor fit]	29.1 µM [rising, single point]
COc1ccc([C@H]2CC(=O)C=C(c3ccc(F)cc3OCc3ccccc3)C2)cc1OC	-6.02%	11.6 µM [falling, single point]	–
COc1ccc(C)cc1NC(C)C(=O)NC(=O)NC1CCCCC1 (stereo not given)	-62.2%	7.31 µM [falling, partial curve, poor fit]	4.11 µM [falling, full curve]
O=C(/C=C\c1ccc2c(c1)OCO2)Nc1c2c(nn1-c1ccc(Cl)cc1)CSC2	26.2%	0.082 µM [rising, full curve, poor fit]	–
COC(=O)[C@H](Cc1ccccc1)NC(=O)NCCC1=CCCCC1	-43%	3.66 µM [falling, full curve]	1.64 µM [falling, full curve]
CCCCC(C(=O)NC(C)c1ccccc1)C(=O)NC(C)c1ccccc1 (stereo not given)	-20%	8.2 µM [falling, partial curve, poor fit]	–
COC(=O)COc1ccc2c(-c3ccc(OC)cc3)cc(=O)oc2c1	-16.8%	2.31 µM [falling, full curve, poor fit]	–
Cc1c(NC(=O)COC(=O)Cc2ccc(F)cc2)c(=O)n(-c2ccccc2)n1C	-11.2%	–	–
Cc1ccc(-c2cc3ccccc3nc2N2CCCC2)cc1	40.2%	5.8 µM [rising, full curve]	8.2 µM [rising, partial curve]
Cc1cc(C)c2ccc(NN)nc2c1O	12.2%	–	–
COc1cc(OC)c(S(=O)(=O)NC(C)C)cc1C(=O)O	-8.48%	29.1 µM [falling, single point]	–
CC(C)Oc1ccc(CNC(=O)CCCN2C(=O)C(c3ccccc3)Oc3cccnc32)cc1 (stereo not given)	1.53%	–	–
CCn1nnnc1SCC(=O)NCc1cccs1	-5.5%	–	–

Compound	cell number change	AC50 [1]	AC50 [2]
COc1ccc(-n2ncc3c(=O)n(CC(=O)N4CCCc5ccccc54)cnc32)cc1	-16.3%	0.411 µM [rising, full curve, poor fit]	–
CCOc1ccc(-n2c(Cc3ccccc3)nnc2SCc2c(C)noc2C)cc1	-5.35%	–	–
CCOc1ccc(C(=O)NCC(=O)NCC(c2cccs2)N2CCOCC2)cc1 (stereo not given)	28.5%	29.1 µM [rising, single point]	–
O=C(c1cnn2cccnc12)N1CCN(c2ccccc2)CC1	59.8%	29.1 µM [rising, single point]	23.1 µM [rising, single point]
CCOC(=O)N1CCN(CCC(=O)Nc2cc([N+](=O)[O-])ccc2OC)CC1	-66.7%	–	4.61 µM [falling, full curve]
Nn1c(SCc2cn3ccsc3n2)nnc1-c1ccncc1	6.9%	23.1 µM [falling, partial curve]	–
Oc1ccc(/C=N/Nc2ccnc3cc(Cl)ccc23)c(O)c1O	12.1%	0.00461 µM [rising, full curve, poor fit]	–
COc1ccc(OC)c(NC(=O)C2CCCN(S(C)(=O)=O)C2)c1 (stereo not given)	–	29.1 µM [rising, single point]	–
O=C(O)CC1(c2ccc(F)cc2)C2CC3CC(C2)CC1C3 (stereo not given)	-5.63%	3.66 µM [falling, single point]	–
Cc1ccccc1OCCC(=O)OCC(=O)Nc1ccc2[nH]c(=O)[nH]c2c1	-49.3%	29.1 µM [falling, single point]	29.1 µM [falling, single point]
Cc1nnc(SCC(=O)Nc2ccc(N3CCOCC3)cc2)n1Cc1ccccc1	22.4%	2.91 µM [rising, full curve, poor fit]	–
CCN(c1ccccc1)c1nc(C#N)nc(N(CC)c2ccccc2)n1	15.8%	6.51 µM [rising, single point]	–
O=C(CN1C(=O)CCC1=O)Nc1nc(-c2ccccn2)cs1	-28.2%	–	–
CCOC(=O)CC1C(=O)NCCN1C(=O)c1ccc(Cl)cc1 (stereo not given)	-28.2%	6.51 µM [falling, partial curve]	–
COCCNC(=O)c1cccc(OC2CCN(Cc3ccc(C(C)C)cc3)CC2)c1	-5.11%	18.4 µM [rising, single point]	–
CCN1CCCC1CNC(=O)c1cc2c(OC)c(OC)c(OC)cc2[nH]1 (stereo not given)	19.4%	–	–
COc1ccc(OCC(=O)NC2CCCc3ccccc32)cc1 (stereo not given)	10.5%	5.62 µM [falling, single point]	–
O=C(COC(=O)/C=C/c1ccccc1)NC(=O)NCc1ccccc1	-17.8%	0.00461 µM [rising, full curve, poor fit]	–
O=C(O)C1C2C=CC(C2)C1C(=O)N1CCN(C/C=C/c2ccccc2)CC1 (stereo not given)	5.37%	29.1 µM [rising, single point]	–

Entries shown so far with a Cl atom, in the order listed:
Compound	cell number change	AC50 [1]	AC50 [2]
CN(C)C(=O)c1cn(-c2ccc(Cl)cc2)c(=O)c2ccccc12	3.64%	–	0.731 µM [falling, single point]
COc1ccc(CC(=O)Nc2cccc(Cl)c2C)cc1S(=O)(=O)N1CCOCC1	47.1%	29.1 µM [rising, partial curve, poor fit]	29.1 µM [rising, single point]
O=C(/C=C\c1ccc2c(c1)OCO2)Nc1c2c(nn1-c1ccc(Cl)cc1)CSC2	26.2%	0.082 µM [rising, full curve, poor fit]	–
Oc1ccc(/C=N/Nc2ccnc3cc(Cl)ccc23)c(O)c1O	12.1%	0.00461 µM [rising, full curve, poor fit]	–
CCOC(=O)CC1C(=O)NCCN1C(=O)c1ccc(Cl)cc1 (stereo not given)	-28.2%	6.51 µM [falling, partial curve]	–
